Laboratory results published in patent US20250213523A1, “COMBINATION OF HDAC INHIBITORS AND STATINS FOR USE IN THE TREATMENT OF PANCREATIC CANCER” (ISTITUTO NAZIONALE TUMORI IRCCS - FONDAZIONE G. PASCALE, priority 2022, published 2025).
At least one structure is not confirmed: it was looked up by name or label, or the drawing left a doubt.

Tested on: PANC1, ASPC1, PANC28 and BxPC3 cells
Experiment: Colony formation (clonogenic) assay
Type: cell-based, human
Settings: high (IC25) and low (IC10) doses; all cell lines
Description: FIG. 3. VPA plus SIMVASTATIN antiproliferative and pro-apoptotic effects in PDAC cell lines. A. Synergistic inhibition of colony formation by the VPA/SIM in ASPC1, PANC28, PANC1 and BxPC3 cell lines. […] Upper panel: representative imagines of one experiment; in the lower panel: the bar graphs represent the values of absorbance of colonies after SRB colorimetric assay. Statistical significance was determined by a 2 tailed, unpaired Student's T test (*P<0.05;** P<0.01). B.-C. Synergistic inhibition of microtissues formation by the VPA and SIM alone and in combination. […] The graphics represent the number of viable cells in 3D cell culture based on quantitation of the ATP content. […] Statistical significance was determined by a 2 tailed, unpaired Student's T test (*P<0.05;** P<0.01) (C). […] Antiproliferative effect was assessed in all PDAC cell lines by sulforhodamine B colorimetric assay (see Methods) and expressed as percentage of control. B Apoptosis was evaluated by Caspase 3/7 activity assay, in PANC1, PANC28 and ASPC1 cells untreated or treated for 24 h with VPA/SIM and/or GEM/TAX at the low doses (VPA 0.5 mM, SIM 0,625 μM, GEM 25 nM and TAX 1.25 nM) and evaluated by luminescence assay. […] Expression of cleaved PARP in PANC1, PANC28 and ASPC1 cell lines untreated or treated with VPA/SIM and/or GEM/TAX for 24 h was evaluated by western blotting. βActin was used as loading control. […]

With `CCC(C)(C)C(=O)O[C@H]1C[C@@H](C)C=C2C=C[C@H](C)[C@H](CC[C@@H]3C[C@@H](O)CC(=O)O3)[C@H]21` [SIM, Simvastatin] the colonies formation was “inhibited colonies formation”.
